PubChem BioAssay AID1259254 | NCATS | 2017
Aim: 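Gene knock-downs that lead to re-replication, shown by excess G2 DNA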 (primary screen). Cells: human HCT116 colorectal cancer cells. Knock-down reagent: single siRNA against human genes. Timing: 3 days. Measured: 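Nuclei stained with Hoechst and imaged; cell-cycle phase assigned by DNA content; G2 share scaled per plate, non-targeting siRNA 0%, GMNN siRNA 100%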. Reading the numbers: G2 robust z-score and G2 cells, % of GMNN control: higher = more G2 cells, more excess DNA replication; raw share of cells in G2: higher = larger share of cells with G2 DNA content. Call rule: 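An siRNA counts as active if its G2 robust z-score lies at least 5 MADs above the screen median; here such calls match roughly 38% of GMNN control or more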.
This is an unselected part of about 59,000 deposited reagents. Over the whole deposit, about 1,550 (2.6%) got an active call. 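G2 share is only a proxy for re-replication; each gene was hit by three separate siRNAs, and active genes were retested.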 Raw values vary from plate to plate and are shown uncorrected. Entries without a mark were called inactive. Reagents against one gene are numbered here. Not given: the amount of reagent.

| gene symbol | reagent | G2 robust z-score | G2 cells, % of GMNN control | raw share of cells in G2 (%) |
| --- | --- | --- | --- | --- |
| CLDN23 (claudin 23) | 1 | 2.55 | 20.9 | 10.3 |
| CLDN23 (claudin 23) | 2 | -0.898 | -3.35 | 2 |
| CLDN23 (claudin 23) | 3 | 0.341 | 5.37 | 5.41 |
| LCN1 (lipocalin 1) | 1 | -1.2 | -5.51 | 3.23 |
| LCN1 (lipocalin 1) | 2 | -0.817 | -2.78 | 4.37 |
| LCN1 (lipocalin 1) | 3 | -0.804 | -2.69 | 2.31 |
| RAD50 (RAD50 double strand break repair protein) | 1 | -0.0945 | 2.3 | 3.99 |
| RAD50 (RAD50 double strand break repair protein) | 2 | 0.348 | 5.42 | 6.95 |
| RAD50 (RAD50 double strand break repair protein) | 3 | 0.85 | 8.95 | 8.59 |
| CHFR (checkpoint with forkhead and ring finger domains) | 1 | 0.215 | 4.48 | 6.2 |
| CHFR (checkpoint with forkhead and ring finger domains) | 2 | 0.199 | 4.37 | 8.34 |
| CHFR (checkpoint with forkhead and ring finger domains) | 3 | -0.741 | -2.25 | 3.63 |
| LSM14A (LSM14A mRNA processing body assembly factor) | 1 | 2.28 | 19 | 11.6 |
| LSM14A (LSM14A mRNA processing body assembly factor) | 2 | -0.399 | 0.162 | 4.01 |
| LSM14A (LSM14A mRNA processing body assembly factor) | 3 | 0.273 | 4.89 | 5.01 |
| KBTBD2 (kelch repeat and BTB domain containing 2) | 1 | 0.479 | 6.34 | 6.8 |
| KBTBD2 (kelch repeat and BTB domain containing 2) | 2 | 0.265 | 4.83 | 6.03 |
| KBTBD2 (kelch repeat and BTB domain containing 2) | 3 | -0.445 | -0.162 | 3.24 |
| PI4KAP2 (phosphatidylinositol 4-kinase alpha pseudogene 2) | 1 | 3.95 | 30.8 | 14.3 |
| PI4KAP2 (phosphatidylinositol 4-kinase alpha pseudogene 2) | 2 | -0.22 | 1.42 | 4.02 |
| PI4KAP2 (phosphatidylinositol 4-kinase alpha pseudogene 2) | 3 | 1.38 | 12.7 | 10.1 |
| PARD6A (par-6 family cell polarity regulator alpha) | 1 | -0.344 | 0.546 | 4.06 |
| PARD6A (par-6 family cell polarity regulator alpha) | 2 | -0.549 | -0.893 | 4.21 |
| PARD6A (par-6 family cell polarity regulator alpha) | 3 | 0.438 | 6.05 | 5.16 |
| RPL35 (ribosomal protein L35) | 1 | 10.2 (active) | 74.5 | 34.2 |
| RPL35 (ribosomal protein L35) | 2 | 3.37 | 26.7 | 15.2 |
| RPL35 (ribosomal protein L35) | 3 | -0.0663 | 2.5 | 4.11 |
| HOXD8 (homeobox D8) | 1 | -1.28 | -6.06 | 3.38 |
| HOXD8 (homeobox D8) | 2 | 0.302 | 5.09 | 6.07 |
| HOXD8 (homeobox D8) | 3 | -0.713 | -2.05 | 4.3 |
| UBASH3B (ubiquitin associated and SH3 domain containing B) | 1 | -0.359 | 0.439 | 4.27 |
| UBASH3B (ubiquitin associated and SH3 domain containing B) | 2 | 0.215 | 4.48 | 4.4 |
| UBASH3B (ubiquitin associated and SH3 domain containing B) | 3 | -0.448 | -0.185 | 2.87 |
| MAVS (mitochondrial antiviral signaling protein) | 1 | 0.586 | 7.09 | 7.14 |
| MAVS (mitochondrial antiviral signaling protein) | 2 | 0.265 | 4.83 | 6.77 |
| MAVS (mitochondrial antiviral signaling protein) | 3 | -0.301 | 0.851 | 3.3 |
| ZNF408 (zinc finger protein 408) | 1 | -0.423 | -0.0102 | 2.79 |
| ZNF408 (zinc finger protein 408) | 2 | 0.23 | 4.59 | 7.98 |
| ZNF408 (zinc finger protein 408) | 3 | 0.0426 | 3.27 | 4.66 |

Next part, starting with the last 11 of the part before.
| gene symbol | reagent | G2 robust z-score | G2 cells, % of GMNN control | raw share of cells in G2 (%) |
| --- | --- | --- | --- | --- |
| HOXD8 (homeobox D8) | 2 | 0.302 | 5.09 | 6.07 |
| HOXD8 (homeobox D8) | 3 | -0.713 | -2.05 | 4.3 |
| UBASH3B (ubiquitin associated and SH3 domain containing B) | 1 | -0.359 | 0.439 | 4.27 |
| UBASH3B (ubiquitin associated and SH3 domain containing B) | 2 | 0.215 | 4.48 | 4.4 |
| UBASH3B (ubiquitin associated and SH3 domain containing B) | 3 | -0.448 | -0.185 | 2.87 |
| MAVS (mitochondrial antiviral signaling protein) | 1 | 0.586 | 7.09 | 7.14 |
| MAVS (mitochondrial antiviral signaling protein) | 2 | 0.265 | 4.83 | 6.77 |
| MAVS (mitochondrial antiviral signaling protein) | 3 | -0.301 | 0.851 | 3.3 |
| ZNF408 (zinc finger protein 408) | 1 | -0.423 | -0.0102 | 2.79 |
| ZNF408 (zinc finger protein 408) | 2 | 0.23 | 4.59 | 7.98 |
| ZNF408 (zinc finger protein 408) | 3 | 0.0426 | 3.27 | 4.66 |
| POU2F2 (POU class 2 homeobox 2) | 1 | -0.633 | -1.49 | 2.87 |
| POU2F2 (POU class 2 homeobox 2) | 2 | -0.455 | -0.232 | 4.74 |
| POU2F2 (POU class 2 homeobox 2) | 3 | -0.4 | 0.154 | 3.16 |
| FOXQ1 (forkhead box Q1) | 1 | -0.116 | 2.15 | 6.67 |
| FOXQ1 (forkhead box Q1) | 2 | 0.124 | 3.84 | 6.61 |
| FOXQ1 (forkhead box Q1) | 3 | 0.436 | 6.04 | 6.76 |
| UTP23 (UTP23 small subunit processome component) | 1 | 1.38 | 12.7 | 8.33 |
| UTP23 (UTP23 small subunit processome component) | 2 | -0.0519 | 2.6 | 4.23 |
| UTP23 (UTP23 small subunit processome component) | 3 | -0.925 | -3.54 | 1.33 |
| HSD17B7 (hydroxysteroid 17-beta dehydrogenase 7) | 1 | -1.09 | -4.72 | 1.99 |
| HSD17B7 (hydroxysteroid 17-beta dehydrogenase 7) | 2 | 2.55 | 20.9 | 12 |
| HSD17B7 (hydroxysteroid 17-beta dehydrogenase 7) | 3 | 0.24 | 4.66 | 8.07 |
| UGT1A1 (UDP glucuronosyltransferase family 1 member A1) | 1 | 3.67 | 28.8 | 14.8 |
| UGT1A1 (UDP glucuronosyltransferase family 1 member A1) | 2 | 0.395 | 5.75 | 6.37 |
| UGT1A1 (UDP glucuronosyltransferase family 1 member A1) | 3 | -0.469 | -0.329 | 5.8 |
| ADGRL4 (adhesion G protein-coupled receptor L4) | 1 | 1.79 | 15.6 | 11.4 |
| ADGRL4 (adhesion G protein-coupled receptor L4) | 2 | 1.15 | 11.1 | 8.38 |
| ADGRL4 (adhesion G protein-coupled receptor L4) | 3 | -0.504 | -0.581 | 3.09 |
| GPR35 (G protein-coupled receptor 35) | 1 | 2.51 | 20.6 | 13.2 |
| GPR35 (G protein-coupled receptor 35) | 2 | -0.332 | 0.632 | 4.74 |
| GPR35 (G protein-coupled receptor 35) | 3 | 2.91 | 23.5 | 10.5 |
| IGFLR1 (IGF like family receptor 1) | 1 | 7.81 (active) | 57.9 | 18.2 |
| IGFLR1 (IGF like family receptor 1) | 2 | -0.483 | -0.433 | 4.26 |
| IGFLR1 (IGF like family receptor 1) | 3 | -0.397 | 0.172 | 4.38 |
| SLITRK3 (SLIT and NTRK like family member 3) | 1 | 0.69 | 7.83 | 6.54 |
| SLITRK3 (SLIT and NTRK like family member 3) | 2 | 1.85 | 16 | 9.5 |
| SLITRK3 (SLIT and NTRK like family member 3) | 3 | -0.388 | 0.24 | 6.47 |
| OR5B17 (olfactory receptor family 5 subfamily B member 17) | 1 | -0.259 | 1.14 | 3.99 |
| OR5B17 (olfactory receptor family 5 subfamily B member 17) | 2 | -0.587 | -1.17 | 2.73 |
| OR5B17 (olfactory receptor family 5 subfamily B member 17) | 3 | -0.103 | 2.24 | 3.91 |
| TENT5B (terminal nucleotidyltransferase 5B) | 1 | 1.56 | 14 | 9.69 |
| TENT5B (terminal nucleotidyltransferase 5B) | 2 | -0.835 | -2.91 | 2.46 |
| TENT5B (terminal nucleotidyltransferase 5B) | 3 | -0.213 | 1.47 | 2.25 |
| LIG3 (DNA ligase 3) | 1 | 1.46 | 13.2 | 10.5 |
| LIG3 (DNA ligase 3) | 2 | 0.351 | 5.44 | 7.63 |
| LIG3 (DNA ligase 3) | 3 | -0.515 | -0.656 | 2.98 |
| PIF1 (PIF1 5'-to-3' DNA helicase) | 1 | 0.725 | 8.07 | 8.79 |
| PIF1 (PIF1 5'-to-3' DNA helicase) | 2 | 0.172 | 4.18 | 5.71 |
| PIF1 (PIF1 5'-to-3' DNA helicase) | 3 | 0.126 | 3.86 | 6.21 |
| NIPSNAP3A (nipsnap homolog 3A) | 1 | 4.96 | 37.9 | 18.6 |
| NIPSNAP3A (nipsnap homolog 3A) | 2 | 1.77 | 15.4 | 10.6 |
| NIPSNAP3A (nipsnap homolog 3A) | 3 | 0.126 | 3.86 | 4.65 |
| ACSM3 (acyl-CoA synthetase medium chain family member 3) | 1 | -0.891 | -3.3 | 3.84 |
| ACSM3 (acyl-CoA synthetase medium chain family member 3) | 2 | -0.724 | -2.13 | 3.87 |
| ACSM3 (acyl-CoA synthetase medium chain family member 3) | 3 | -0.585 | -1.15 | 3.76 |
| NCLN (nicalin) | 1 | -0.793 | -2.61 | 3.32 |
| NCLN (nicalin) | 2 | 1.97 | 16.9 | 12.5 |
| NCLN (nicalin) | 3 | 2.52 | 20.7 | 9.58 |
